No constants are given. Whether binding was seen depends on the method and setting. Binding seen in cells or lysates may run through a third protein. Here binding means that the protein was enriched with, or labelled near, the bait; the list need not be complete.

By UniProt entry, the sequences of proteins in these tests, tags left out. Where a name states a change or a piece, a line headed by the entry shows the natural chain unless it says otherwise. Residues count along the entry.
UniProt P18242: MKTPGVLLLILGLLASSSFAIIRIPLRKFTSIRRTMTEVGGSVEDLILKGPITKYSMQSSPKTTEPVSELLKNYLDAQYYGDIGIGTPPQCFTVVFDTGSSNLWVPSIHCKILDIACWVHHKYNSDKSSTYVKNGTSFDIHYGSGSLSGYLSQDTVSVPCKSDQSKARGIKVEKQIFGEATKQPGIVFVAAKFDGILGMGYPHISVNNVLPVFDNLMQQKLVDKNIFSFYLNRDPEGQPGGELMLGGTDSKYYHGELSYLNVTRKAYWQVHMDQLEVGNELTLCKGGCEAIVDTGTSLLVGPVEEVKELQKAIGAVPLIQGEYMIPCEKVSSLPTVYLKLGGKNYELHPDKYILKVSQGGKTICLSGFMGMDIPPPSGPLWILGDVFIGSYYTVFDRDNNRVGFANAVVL
UniProt P63038, residues 27-573: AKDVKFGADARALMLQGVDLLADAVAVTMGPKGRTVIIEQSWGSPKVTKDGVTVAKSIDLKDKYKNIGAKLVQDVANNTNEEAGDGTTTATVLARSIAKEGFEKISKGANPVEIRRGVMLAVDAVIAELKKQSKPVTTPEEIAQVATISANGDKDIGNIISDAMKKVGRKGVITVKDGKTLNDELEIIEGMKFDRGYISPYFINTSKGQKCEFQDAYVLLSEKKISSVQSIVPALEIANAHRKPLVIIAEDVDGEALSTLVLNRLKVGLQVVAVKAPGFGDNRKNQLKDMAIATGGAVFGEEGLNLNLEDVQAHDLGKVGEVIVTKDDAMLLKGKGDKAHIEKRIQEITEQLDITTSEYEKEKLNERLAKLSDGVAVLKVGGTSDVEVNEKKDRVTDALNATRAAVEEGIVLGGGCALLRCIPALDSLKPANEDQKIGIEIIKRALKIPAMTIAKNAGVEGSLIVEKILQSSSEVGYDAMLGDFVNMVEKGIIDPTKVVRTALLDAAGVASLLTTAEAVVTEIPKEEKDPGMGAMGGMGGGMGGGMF
UniProt P68368: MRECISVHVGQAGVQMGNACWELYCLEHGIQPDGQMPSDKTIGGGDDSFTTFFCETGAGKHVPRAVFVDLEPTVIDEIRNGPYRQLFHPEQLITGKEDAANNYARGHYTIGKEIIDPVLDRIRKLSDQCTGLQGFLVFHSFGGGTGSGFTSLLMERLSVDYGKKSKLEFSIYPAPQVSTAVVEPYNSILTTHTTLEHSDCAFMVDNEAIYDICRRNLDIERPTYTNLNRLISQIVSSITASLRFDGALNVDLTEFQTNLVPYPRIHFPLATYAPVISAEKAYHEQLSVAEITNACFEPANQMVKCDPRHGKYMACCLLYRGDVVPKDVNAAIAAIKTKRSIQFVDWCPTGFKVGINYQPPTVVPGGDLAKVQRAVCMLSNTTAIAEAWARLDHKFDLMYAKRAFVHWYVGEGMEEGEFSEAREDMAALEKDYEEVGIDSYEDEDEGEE
UniProt P54923: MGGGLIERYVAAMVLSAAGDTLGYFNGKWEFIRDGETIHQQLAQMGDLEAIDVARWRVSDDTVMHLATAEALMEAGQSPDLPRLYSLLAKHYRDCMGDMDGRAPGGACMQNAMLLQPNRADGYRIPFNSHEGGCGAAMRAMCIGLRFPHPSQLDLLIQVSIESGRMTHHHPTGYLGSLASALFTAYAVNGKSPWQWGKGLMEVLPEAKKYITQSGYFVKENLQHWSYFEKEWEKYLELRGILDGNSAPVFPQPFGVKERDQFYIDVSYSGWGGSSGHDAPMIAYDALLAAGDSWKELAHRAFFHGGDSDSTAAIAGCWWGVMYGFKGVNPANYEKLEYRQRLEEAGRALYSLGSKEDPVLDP
UniProt P19157: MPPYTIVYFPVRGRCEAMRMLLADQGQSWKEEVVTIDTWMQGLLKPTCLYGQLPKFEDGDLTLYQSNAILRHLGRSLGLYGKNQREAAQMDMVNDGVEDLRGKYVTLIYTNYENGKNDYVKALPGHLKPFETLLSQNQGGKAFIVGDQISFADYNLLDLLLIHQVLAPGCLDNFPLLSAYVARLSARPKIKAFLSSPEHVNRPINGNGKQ
UniProt P23979, residues 24-489: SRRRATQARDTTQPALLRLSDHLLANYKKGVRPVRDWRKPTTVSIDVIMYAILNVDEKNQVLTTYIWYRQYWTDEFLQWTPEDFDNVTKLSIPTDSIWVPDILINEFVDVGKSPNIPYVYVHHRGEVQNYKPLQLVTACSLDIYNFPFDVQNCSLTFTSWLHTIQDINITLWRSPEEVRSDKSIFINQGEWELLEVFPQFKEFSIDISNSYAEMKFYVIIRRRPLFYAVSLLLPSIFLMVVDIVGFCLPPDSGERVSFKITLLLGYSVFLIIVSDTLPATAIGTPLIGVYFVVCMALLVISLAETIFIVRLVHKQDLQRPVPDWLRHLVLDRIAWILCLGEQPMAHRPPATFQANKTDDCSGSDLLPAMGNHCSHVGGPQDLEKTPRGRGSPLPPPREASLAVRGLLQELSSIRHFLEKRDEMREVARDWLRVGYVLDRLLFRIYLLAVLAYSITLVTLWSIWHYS
UniProt P20029, residues 20-655: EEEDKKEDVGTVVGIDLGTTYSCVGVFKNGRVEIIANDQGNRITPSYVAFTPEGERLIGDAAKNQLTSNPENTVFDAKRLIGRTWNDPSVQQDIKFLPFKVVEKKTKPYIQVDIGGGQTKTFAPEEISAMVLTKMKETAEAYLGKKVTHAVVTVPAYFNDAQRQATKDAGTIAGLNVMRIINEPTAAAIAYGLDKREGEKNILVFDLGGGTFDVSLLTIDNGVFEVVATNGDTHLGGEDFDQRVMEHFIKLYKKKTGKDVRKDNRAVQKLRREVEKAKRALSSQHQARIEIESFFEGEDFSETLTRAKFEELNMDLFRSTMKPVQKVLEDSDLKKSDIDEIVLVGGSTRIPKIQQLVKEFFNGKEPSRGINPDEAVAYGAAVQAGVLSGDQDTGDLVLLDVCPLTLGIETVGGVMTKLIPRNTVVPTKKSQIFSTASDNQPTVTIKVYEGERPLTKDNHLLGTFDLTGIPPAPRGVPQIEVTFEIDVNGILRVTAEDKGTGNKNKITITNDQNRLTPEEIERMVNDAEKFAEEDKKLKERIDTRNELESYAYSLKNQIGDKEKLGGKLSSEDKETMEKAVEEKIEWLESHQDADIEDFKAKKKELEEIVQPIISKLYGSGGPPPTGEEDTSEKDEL
UniProt O88569: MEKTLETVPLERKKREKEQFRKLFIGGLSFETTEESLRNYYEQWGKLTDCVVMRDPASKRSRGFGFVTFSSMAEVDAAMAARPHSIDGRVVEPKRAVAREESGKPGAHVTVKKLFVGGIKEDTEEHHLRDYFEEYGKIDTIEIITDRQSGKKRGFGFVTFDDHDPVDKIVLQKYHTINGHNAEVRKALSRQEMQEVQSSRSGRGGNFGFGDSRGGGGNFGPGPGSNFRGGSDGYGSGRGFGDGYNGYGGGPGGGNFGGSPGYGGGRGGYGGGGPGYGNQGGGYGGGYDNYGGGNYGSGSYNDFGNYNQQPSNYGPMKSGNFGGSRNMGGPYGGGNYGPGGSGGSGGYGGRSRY

To fix the notation:
B1: CP (protein, UniProt Q61147 20-1061)
chain: RDKHYFIGITEAVWDYASGTEEKKLISVDTEQSNFYLQNGPDRIGRKYKKALYFEYTDGTFSKTIDKPAWLGFLGPVIKAEVEDKVYVHLKNLASRIYTFHAHGVTYTKEYEGAVYPDNTTDFQRADDKVLPGQQYVYVLHANEPSPGEGDSNCVTRIYHSHVDAPKDIASGLIGPLILCKKGSLYKEKEKNIDQEFVLMFSVVDENLSWYLEDNIKTFCSEPEKVDKDNEDFQESNRMYSINGYTFGSLPGLSMCAADRVKWYLFGMGNEVDVHSAFFHGQALTSRNYQTDIINLFPATLIDAYMVAQNPGVWMLSCQNLNHLKAGLQAFFQVRDCNKPSPEDNIQDRHVRHYYIAAEEVIWNYAPSGTDIFTGENLTALESDSRVFFEQGATRIGGSYKKMAYREYTDGSFTNRKQRGPDEEHLGILGPVIWAEVGDTIKVTFHNKGQHPLSIQPMGVSFTAENEGTYYGPPGRSSQQAASHVAPKETFTYEWTVPKEMGPTYADPVCLSKMYYSGVDPTKDIFTGLIGPMKICKKGSLLADGRQKDVDKEFYLFPTVFDENESLLLDDNIRMFTTAPDQVDKEDEDFQESNKMHSMNGFMYGNQPGLNMCLGESIVWYLFSAGNEADVHGIYFSGNTYLSKGERRDTANLFPHKSLTLLMNPDTKGTFDVECLTTDHYTGGMKQKYTVNQCQRQFEDFTVYLGERTYYVAAVEVEWDYSPSRAWEKELHHLQEQNVSNVFLDKEEFFIGSKYKKVVYRQFTDSSFREQVKRRAEDEHLGILGPPIHANVGDKVKVVFKNMATRPYSIHAHGVKTESSTVVPTLPGEVRTYTWQIPERSGAGREDSACIPWAYYSTVDRVKDLYSGLIGPLIVCRKSYVKVFSPKKKMEFFLLFLVFDENESWYLDDNIKTYSEHPEKVNKDNEEFLESNKMHAINGKMFGNLQGLTMHVKDEVNWYVMGMGNEIDLHTVHFHGHSFQYKHRGVYSSDVFDLFPGTYQTLEMFPQTPGTWLLHCHVTDHVHAGMATTYTVLPVEQETKSG
B2: Eef1d (protein, UniProt P57776 1-281)
chain: MATNFLAHEKIWFDKFKYDDAERRFYEQMNGPVTSGSRQENGASVILRDIARARENIQKSLAGSSGPGASSGPGGDHSELIVRITSLEVENQNLRGVVQDLQQAISKLEARLSSLEKSSPTPRATAPQTQHVSPMRQVEPPTKKGATPAEDDEDKDIDLFGSDEEEEDKEAARLREERLRQYAEKKAKKPTLVAKSSILLDVKPWDDETDMAQLETCVRSIQLDGLVWGASKLVPVGYGIRKLQIQCVVEDDKVGTDLLEEEITKFEEHVQSVDIAAFDKI
B3: Dnajc10 (protein, UniProt Q9DC23 33-793)
chain: DQNFYSLLGVSKTASSREIRQAFKKLALKLHPDKNPNNPNAHGDFLKINRAYEVLKDEDLRKKYDKYGEKGLEDNQGGQYESWSYYRYDFGIYDDDPEIITLERREFDAAVNSGELWFVNFYSPGCSHCHDLAPTWREFAKEVDGLLRIGAVNCGDDRMLCRMKGVNSYPSLFIFRSGMAAVKYNGDRSKESLVAFAMQHVRSTVTELSTGNFVNAIETAFAAGVGWLITFCSKGEDCLTSQTRLRLSGMLDGLVNVGWVDCDAQDSLCKSLDTTASTTAYFPPGATLNDREKSSVLFLNSLDAKEIYMEIIHNLPDFELLSANQLEDRLAHHRWLVFFHFGKNENANDPELKKLKTLLKNEHIQVGRFDCSSAPGICSDLYVFQPCLAVFKGQGTKEYEIHHGKKILYDILAFAKESVNSHVTTLGPQNFPASDKEPWLVDFFAPWCPPCRALLPELRKASTLLYGQLKVGTLDCTIHEGLCNMYNIQAYPTTVVFNQSSIHEYEGHHSAEQILEFIEDLRNPSVVSLTPSTFNELVKQRKHDEVWMVDFYSPWCHPCQVLMPEWKRMARTLTGLINVGSVDCQQYHSFCTQENVQRYPEIRFYPQKSSKAYQYHSYNGWNRDAYSLRSWGLGFLPQASIDLTPQTFNEKVLQGKTHWVVDFYAPWCGPCQNFAPEFELLARMIKGKVRAGKVDCQAYPQTCQKAGIKAYPSVKLYQYERAKKSIWEEQINSRDAKTIAALIYGKLETLQSQVKRNKDEL
B4: CNPY4 (protein, UniProt Q8BQ47 28-245)
chain: EATKEEEDDTERLPSKCEVCKLLSMELQEALSRTGRSREVLELGQVLDTGKRKRHVPYSLSETRLEEALENLCERILDYNVHAERKGSLRYAKGQSQTMATLKGLVQKGVKVDLGIPLELWDEPSVEVTFLKKQCETMLEEFEDVVGDWYFHHQEQPLQHFLCERHVLPASETACLREAWTGKEKISDGQEEADDEEEEEEEEITKTSGNPKHDPEDL
B5: Ero1I (protein, UniProt Q8R180 24-464)
chain: EERRPETAAQRCFCQVSGYLDDCTCDVETIDKFNNYRLFPRLQKLLESDYFRYYKVNLKKPCPFWNDINQCGRRDCAVKPCHSDEVPDGIKSASYKYSEEANRIEECEQAERLGAVDESLSEETQKAVLQWTKHDDSSDSFCEIDDIQSPDAEYVDLLLNPERYTGYKGPDAWRIWSVIYEENCFKPQTIQRPLASGRGKSKENTFYNWLEGLCVEKRAFYRLISGLHASINVHLSARYLLQDTWLEKKWGHNVTEFQQRFDGILTEGEGPRRLRNLYFLYLIELRALSKVLPFFERPDFQLFTGNKVQDAENKALLLEILHEIKSFPLHFDENSFFAGDKNEAHKLKEDFRLHFRNISRIMDCVGCFKCRLWGKLQTQGLGTALKILFSEKLIANMPESGPSYEFQLTRQEIVSLFNAFGRISTSVRELENFRHLLQNVH
B6: Ganab (protein, UniProt Q8BHN3 33-944)
chain: VDRSNFKTCDESSFCKRQRSIRPGLSPYRALLDTLQLGPDALTVHLIHEVTKVLLVLELQGLQKNMTRIRIDELEPRRPRYRVPDVLVADPPTARLSVSGRDDNSVELTVAEGPYKIILTAQPFRLDLLEDRSLLLSVNARGLMAFEHQRAPRVPQESKDPAEGNGAQPEATPGDGDKPEETQEKAEKDEPGAWEETFKTHSDSKPYGPTSVGLDFSLPGMEHVYGIPEHADSLRLKVTEGGEPYRLYNLDVFQYELNNPMALYGSVPVLLAHSFHRDLGIFWLNAAETWVDISSNTAGKTLFGKMLDYLQGSGETPQTDIRWMSESGIIDVFLMLGPSVFDVFRQYASLTGTQALPPLFSLGYHQSRWNYRDEADVLEVDQGFDDHNMPCDVIWLDIEHADGKRYFTWDPTRFPQPLNMLEHLASKRRKLVAIVDPHIKVDSGYRVHEELRNHGLYVKTRDGSDYEGWCWPGSASYPDFTNPRMRAWWSNMFSFDNYEGSAPNLYVWNDMNEPSVFNGPEVTMLKDAVHYGGWEHRDIHNIYGLYVHMATADGLIQRSGGIERPFVLSRAFFSGSQRFGAVWTGDNTAEWDHLKISIPMCLSLALVGLSFCGADVGGFFKNPEPELLVRWYQMGAYQPFFRAHAHLDTGRREPWLLASQYQDAIRDALFQRYSLLPFWYTLFYQAHKEGFPVMRPLWVQYPEDMSTFSIEDQFMLGDALLIHPVSDAGAHGVQVYLPGQEEVWYDIQSYQKHHGPQTLYLPVTLSSIPVFQRGGTIVPRWMRVRRSSDCMKDDPITLFVALSPQGTAQGELFLDDGHTFNYQTRHEFLLRRFSFSGSTLVSSSADPKGHLETPIWIERVVIMGAGKPAAVVLQTKGSPESRLSFQHDPETSVLILRKPGVSVASDWSIHLR
B7: Erp44 (protein, UniProt Q9D1Q6 30-406)
chain: EIASLDSENIDEILNNADVALVNFYADWCRFSQMLHPIFEEASDVIKEEYPDKNQVVFARVDCDQHSDIAQRYRISKYPTLKLFRNGMMMKREYRGQRSVKALADYIRQQKSNPVHEIQSLDEVTNLDRSKRNIIGYFEQKDSENYRVFERVASILHDDCAFLSAFGDLSKPERYNGDNVIYKPPGRSAPDMVYLGSMTNFDVTYNWIQDKCVPLVREITFENGEELTEEGLPFLILFHMKDDTESLEIFQNEVARQLISEKGTINFLHADCDKFRHPLLHIQKTPADCPVIAIDSFRHMYVFGDFKDVLIPGKLKQFVFDLHSGKLHREFHHGPDPTDTAPGEQDQDVASSPPESSFQKLAPSEYRYTLLRDRDEL
B8: CERLD2 (protein, UniProt Q9CYA0 23-350)
chain: SRKPTMCQRCRTLVDKFNQGMANTARKNFGGGNTAWEEKTLSKYEFSEIRLLEIMEGLCDSSDFECNQLLEQQEEQLEAWWQTLKKEHPNLFEWFCVHTLKACCLPGTYGPDCQECQGGSERPCSGNGYCSGDGSRQGDGSCQCHTGYKGPLCIDCTDGFFSLQRNETHSICSACDESCKTCSGPSNKDCIQCEVGWARVEDACVDVDECAAETSPCSDGQYCENVNGSYTCEDCDSTCVGCTGKGPANCKECIAGYTKESGQCTDIDECSLEEKACKRKNENCYNVPGSFVCVCPEGFEETEDACVQTAEGKVTEENPTQPPSREDL
B9: Necap2 (protein, UniProt Q9D1J1 1-266)
chain: MEESEYESVLCVKPEVHVYRIPPRATNRGYRASEWQLDQPSWSGRLRITAKGKVAYIKLEDRTSGELFAQAPVDQFPGTAVESVTDSSRYFVIRIEDGNGRRAFIGLGFGDRGDAFDFNVALQDHFKWVKQQCEFAKQAQNPDEGPKLDLGFKDGQTIKINIANMRKKEGAAGTPRARPTSAGGLSLLPPPPGGKSSTVIPPSGEQLSVGGSLVQPAVVSGSGGATELWPQSKPAAAATADIWGDFTKSTGSPSSQSQPGTGWVQF
B10: Dnajc3 (protein, UniProt Q91YW3 32-504)
chain: GVNADVEKHLELGKKLLAAGQLADALSQFHAAVDGDPDNYIAYYRRATVFLAMGKSKAALPDLTKVIALKMDFTAARLQRGHLLLKQGKLDEAEDDFKKVLKSNPSEQEEKEAESQLVKADEMQRLRSQALDAFDGADYTAAITFLDKILEVCVWDAELRELRAECFIKEGEPRKAISDLKAASKLKSDNTEAFYKISTLYYQLGDHELSLSEVRECLKLDQDHKRCFAHYKQVKKLNKLIESAEELIRDGRYTDATSKYESVMKTEPSVAEYTVRSKERICHCFSKDEKPVEAIRICSEVLQMEPDNVNALKDRAEAYLIEEMYDEAIQDYEAAQEHNENDQQIREGLEKAQRLLKQSQKRDYYKILGVKRNAKKQEIIKAYRKLALQWHPDNFQNEEEKKKAEKKFIDIAAAKEVLSDPEMRKKFDDGEDPLDAESQQGGGGNPFHRSWNSWQGFNPFSSGGPFRFKFHFN

One assay deals with HA-tagged gp96 (UniProt P08113). Kind of assay: affinity purification with mass spectrometry; RIPA lysate (500 μg) of preB leukemia cells stably expressing HA-tagged gp96, precleared with normal IgG on protein G beads, then anti-HA (clone HA-7) on protein G beads 3 hours at 4°C; eluate on SDS-PAGE, LC-MS/MS.
As to CTSD (from UniProt P18242), the binding result is on record as “binds”. As to Hspd1 (from UniProt P63038 27-573), the binding result was “binds”. Regarding “Tubulin α4a (TUBA4A) (from UniProt P68368 1-448)”, the binding result is “binds”. On the same count and under the same terms, next, Hnrnpk (from UniProt P61979 1-463): “binds”; Adprh (from UniProt P54923 1-362): “binds”. Still for that read-out and setting: next, Gstp1 (from UniProt P19157 1-210): “binds”. Turning to HTR3A (from UniProt P23979 24-489), the binding result was “binds”. With Hspa5 (from UniProt P20029 20-655), the binding entry is “binds”. Same read-out and setting: next, Hnrnpa2b1 (from UniProt O88569 1-353): “binds”.

The next assay shares this target. The assay is described as above. The source holds these as a separate data set.
In the case of B1, the binding result is “binds”. On the same count and under the same terms, with B2 the entry was “binds”. On the same count and under the same terms, with B3 the entry was “binds”; with B4, “binds”.

For the molecule B5, the binding entry is recorded as “binds”. The same measure, in the same setting: next, B6: “binds”. As for B7, the binding result is recorded as “binds”.

For the molecule B8, the binding result was “binds”. Consider B9, for which the binding entry is “binds”. Regarding B10, the binding entry is “binds”.

The record behind these values is article PMC5215799.
